Test results as given in article PMC7862700.
The list shows a part of the results, in another mix than the full data. At the low end of the ranking the order means little.

Amino acid sequences for entries named in this document (tags omitted). A change or cut given only in a name is not applied to a line headed by its entry.
UniProt Q9Y603: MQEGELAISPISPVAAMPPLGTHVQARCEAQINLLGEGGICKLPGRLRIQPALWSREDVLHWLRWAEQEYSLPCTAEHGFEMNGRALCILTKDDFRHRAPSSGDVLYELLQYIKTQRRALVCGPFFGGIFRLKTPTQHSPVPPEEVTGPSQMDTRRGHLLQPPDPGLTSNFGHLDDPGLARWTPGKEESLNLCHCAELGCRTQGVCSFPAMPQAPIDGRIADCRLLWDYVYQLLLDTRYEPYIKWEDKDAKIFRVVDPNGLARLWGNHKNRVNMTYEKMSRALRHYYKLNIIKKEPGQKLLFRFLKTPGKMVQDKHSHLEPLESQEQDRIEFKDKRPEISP
UniProt P41212: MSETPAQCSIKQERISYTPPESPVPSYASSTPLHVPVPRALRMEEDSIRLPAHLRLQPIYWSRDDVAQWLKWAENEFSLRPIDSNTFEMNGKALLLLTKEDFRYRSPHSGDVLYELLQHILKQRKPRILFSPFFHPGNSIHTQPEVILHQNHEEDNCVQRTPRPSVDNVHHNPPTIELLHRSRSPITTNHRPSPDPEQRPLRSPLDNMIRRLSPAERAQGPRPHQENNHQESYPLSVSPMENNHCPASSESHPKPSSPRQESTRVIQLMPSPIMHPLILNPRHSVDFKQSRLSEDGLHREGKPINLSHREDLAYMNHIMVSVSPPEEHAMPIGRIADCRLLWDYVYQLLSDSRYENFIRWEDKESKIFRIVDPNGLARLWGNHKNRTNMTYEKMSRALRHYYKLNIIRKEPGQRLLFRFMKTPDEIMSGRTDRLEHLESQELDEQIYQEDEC

What was measured:
Experiment in all cases: DAPPL (digital affinity profiling via proximity ligation, sequencing)
Settings in all cases: 10 mM Tris-HCl pH 7.5, 50 mM NaCl, 1 mM DTT, 4% glycerol, room temperature, 30 min; GST-TFs on glutathione beads, 16-mer random dsDNA library, 0.1% …; high values mean tight binding; double strand, one strand shown; scale: fold enrichment (6-mer frequency, TF over GST control)
ELF3 = target: T1, ELF3 (UniProt P78545)
T1 sequence: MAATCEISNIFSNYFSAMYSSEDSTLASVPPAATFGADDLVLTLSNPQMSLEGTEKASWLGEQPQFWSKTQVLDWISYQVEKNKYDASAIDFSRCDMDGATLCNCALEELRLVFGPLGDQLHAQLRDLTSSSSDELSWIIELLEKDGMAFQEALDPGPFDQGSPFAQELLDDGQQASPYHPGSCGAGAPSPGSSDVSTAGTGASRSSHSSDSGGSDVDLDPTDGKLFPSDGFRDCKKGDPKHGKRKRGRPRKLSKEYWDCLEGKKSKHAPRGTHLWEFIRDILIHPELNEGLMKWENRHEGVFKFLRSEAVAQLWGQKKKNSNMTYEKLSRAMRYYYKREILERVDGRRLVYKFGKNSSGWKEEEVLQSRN

ETV7 = ETV7 (UniProt Q9Y603)
ETV6 = ETV6 (UniProt P41212)

Row | Sequence | binding signal (ELF3) | binding signal (ETV7) | binding signal (ETV6)
1 | TGCAGA | 0.947 | 0.983 | 0.983
2 | TCTTTT | 1.41 | 1.56 | –
3 | CGTCCA | 0.994 | 0.99 | –
4 | TGTGCG | 0.992 | 0.997 | 1.06
5 | TAATCG | 1.07 | 0.903 | –
6 | GCTGCA | 0.859 | 0.96 | –
7 | AGCGGC | 0.861 | 1.01 | –
8 | CTGGTA | 1.2 | 1.4 | –
9 | AGATAT | 0.919 | 0.957 | 0.993
10 | GAATGG | 0.949 | 0.94 | –
11 | CTTAAG | 0.93 | 1.04 | –
12 | CCGCGG | 0.835 | 0.872 | 0.923
13 | AGGGCT | 0.931 | 1.12 | –
14 | TCAAAC | 1.24 | 1.11 | –
15 | TTGGGG | 1.24 | 1.12 | –
16 | TTCCGC | 3.06 | 3.02 | –
17 | AGGGTT | 0.886 | 0.872 | 0.921
18 | GCCCGA | 1.21 | 0.971 | –
19 | GCGACG | 0.866 | 0.921 | 0.871

Row | Sequence | binding signal (ELF3) | binding signal (ETV7) | binding signal (ETV6)
20 | CATTAG | 0.871 | 0.981 | 0.966
21 | AACGCA | 1.03 | 0.953 | –
22 | TATAAT | 1.27 | 1.17 | –
23 | TTATAT | 1.44 | 1.38 | –
24 | GTGCCT | 0.697 | 0.897 | –
25 | TGCTTG | 0.971 | 1.19 | –
26 | CTAGGC | 0.954 | 1.2 | –
27 | GGCTTA | 1.14 | 0.991 | 0.984
28 | TGTCAC | 1.2 | 1.29 | –
29 | GGTACA | 0.986 | 1.11 | –
30 | CACTCC | 1.23 | 1.24 | –
31 | CGAACA | 1.2 | 1.2 | –
32 | CCACCG | 0.941 | 1.06 | 1.06
33 | TGCCGA | 1.16 | 1.15 | –
34 | ACCTCC | 1.14 | 1.4 | –
35 | CGGTAT | 0.922 | 0.97 | –
36 | CATAAG | 0.993 | 0.921 | 0.884
37 | TTGTCA | 0.923 | 1.2 | –
38 | TGGATA | 1.16 | 0.99 | –

Exported as tab-separated lines: part of the list above.
Row	Sequence	binding signal (ELF3)	binding signal (ETV7)	binding signal (ETV6)
32	CCACCG	0.941	1.06	1.06
33	TGCCGA	1.16	1.15	–
34	ACCTCC	1.14	1.4	–
